# Some of the results follow.
# What was measured:
# [1] = molecular target: PYCR1_P32322_95_HIVVSCAAGVTISSIEK (UniProt P32322); test: probe-labelled cysteine peptide fold change vs DMSO (competition) (log2 fold change); higher = less target engagement (more negative = stronger competition); conditions: THP-1, incubation time: 4 h
# [2] = molecular target: PYCR2_Q96C36_95_HIVVSCAAGVTISSVEK (UniProt Q96C36); test: as above; conditions: THP-1, incubation time: 4 h
# 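Note: competitive profiling in live THP-1 cells: cysteine peptides tagged with an iodoacetamide desthiobiotin (IA-DTB) probe, intensity after compound treatment relative to DMSO-treated cells.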
compound,measurement,setting,value
Cc1cc(C(=O)N2CCCN(C(=O)CCl)CC2)ccc1-c1ccccc1 [compound 10],probe-labelled cysteine peptide fold change,[1]; 10 µM,0.0538
same,probe-labelled cysteine peptide fold change,[1]; 50 µM,0.149
same,probe-labelled cysteine peptide fold change,[2]; 10 µM,0.169
same,probe-labelled cysteine peptide fold change,[2]; 50 µM,0.286

# Source: the supplement of paper PMC12067093, “Discovery and optimisation of a covalent ligand for TRIM25 and its application to targeted protein ubiquitination” (Chemical Science, 2025)
